# Source: PubChem BioAssay AID1347426 (Functional Genomics Laboratory (NCATS/FGL), 2020)
# The whole screen tested about 31,000 sequences, of which about 1,400 (4.5%) were called active.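 The calls were made as follows: active = median seed-adjusted z-score above 1 or below -1; inactive = the rest.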 The list shows a part of the results.
# Test: Novel Modifiers of Survival Motor Neuron (SMN) Protein: Gene Identification via Genome-wide siRNA Screen;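 also: luminescence tracks full-length SMN protein made from the SMN2 reporter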
# Details: HEK293T SMN2-luciferase reporter, siRNA knockdown, 72 h; actives lie on both sides
# Summary of the method: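 HEK293T cells stably expressing an SMN2 splicing/cDNA-luciferase reporter were reverse-transfected with a druggable-genome siRNA library and read by luminescence at 72 hours; hits defined by MAD score above 1.0 or below -1.0.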
row,Sequence,median seed-adjusted z-score
1,UGACCGUUUUGGCAAUCCATT against HBG1,inactive: -0.716
2,CACCUUCGAUGUUGAGAAATT against SPAG4,inactive: -0.219
3,AGAUCUUUGGAGUGCCUAATT against LTK,inactive: -0.0881
4,GGCAUCCGCUUGUACUACATT against DBH,inactive: 0.337
5,CAAGUACUGUGGUAAAUCUTT against PRDM14,inactive: 0.316
6,GGAUGUGGGUUUACUCUUUTT against SLC1A5,inactive: -0.104
7,UCACUGUGGUGUAUUUUAATT against PDP2,inactive: -0.0726
8,GUAACAAAAGUAAAUCCAATT against VAX1,inactive: 0.937
9,GGGACGUGACCUUGACUUATT against RAMP1,inactive: -0.031
10,GGAAUAACAAUGUGAUAAATT against PNLIPRP1,inactive: -0.725
11,GAGCCUCUAUUAAUGGACATT against RASSF6,inactive: -0.592
12,CGAGAUAGGUUGCUGACUUTT against S100A2,inactive: -0.0951
13,GCGAAGACAUGUUCGAGAATT against FOXL2,inactive: -0.166
14,AGGACUACUGUAUCCUGUUTT against IMP5,inactive: 0.559
15,AGACAGAAGCUAAGGCAGATT against ZNF668,inactive: 0
16,CGGGAUCAGUUAGCAACUATT against PRKAA1,inactive: 0.0423
17,GCAAUUUUGGGUACUCGUATT against TSTA3,inactive: 0.155
18,CGUUCCGACUCUGACCAGATT against SEMA3G,inactive: 0.00615
19,CCGCAGAUCCUGUAGACUATT against PARD3B,inactive: 0.306
20,GAGUGCUCAUAUACCCAGATT against TFR2,inactive: 0.965
21,UCGCUACUCCGUAUGGGUATT against ASMTL,inactive: -0.0375
22,AAGUGGUACUAGGAUUAUATT against LSM8,inactive: -0.44
23,AGGCAUAUCUUGAAGAACATT against CIP29,active: -1.18

# Pulled one by one from above (4):
row,Sequence,median seed-adjusted z-score
1,UGACCGUUUUGGCAAUCCATT against HBG1,inactive: -0.716
4,GGCAUCCGCUUGUACUACATT against DBH,inactive: 0.337
11,GAGCCUCUAUUAAUGGACATT against RASSF6,inactive: -0.592
9,GGGACGUGACCUUGACUUATT against RAMP1,inactive: -0.031

# Next part

row,Sequence,median seed-adjusted z-score
1,GCAUGAUCGGGAGGGUUUATT against PPID,inactive: -0.206
2,CAACCAUGCAACUUCGAAATT against JARID1D,inactive: 0.293
3,CAUCGAGGGUGGACUGAUATT against RGL1,inactive: 0.0217
4,CGGGUGCACUACUACAUCUTT against GBGT1,inactive: 0.48
5,GGGCGCAAAUUAUACCUAATT against ZNF610,inactive: 0.432
6,GGACUUCAAUAUCGCAGUATT against PLCE1,inactive: 0.597
7,CAGUGUAUUUGAUUCCGAUTT against SOS1,inactive: 0
8,ACAUCACUGCGGAGGCUUCTT against PRSSL1,inactive: -0.221
9,GCAUAUCAGACGUACAAGATT against SLC10A6,inactive: -0.803
10,GGUCCUCAUUGAAAACGAATT against BTBD11,inactive: -0.00434
11,GAGUACAUGUACUACCUGATT against RFX1,inactive: 0.818
12,AGCUCUCCACAGAUCUGAATT against AGAP3,inactive: 0.554
13,CCUUCUAUCAUGUAAGCUATT against IL1A,active: 1.12
14,CUGCUCUAAUUACACCGUATT against CILP,inactive: 0.0436
15,CAUGGAACCCAGAGACUUATT against GDPD2,inactive: -0.0868
16,GGGUCAUCAGUAGCAUUGATT against YWHAG,active: 1.98
17,CGACUAGAGAGCUACAGGATT against CCL11,inactive: -0.221
18,GGACCUGUCUUAACAGUAATT against VNN1,inactive: 0.549
19,ACAACGAGCCUGAGAAGGATT against DLX2,inactive: -0.527
20,ACUUUGAAGGCUUAACGAUTT against PMS2L3,inactive: 0.175
21,CUACUUUGCUUUCAUCACUTT against KCNK16,inactive: 0
22,GAGACAACCAAAAAGUGCATT against GUSB,inactive: -0.542
23,CCUUCUACAUCGGCAGCUATT against COPE,inactive: 0.499

row,Sequence,median seed-adjusted z-score
1,CAGCCGUACCAGAAAUAAATT against CD7,inactive: 0.249
2,CGAUCAACCAGAUGACGAUTT against APPL2,inactive: -0.245
3,GGACAACUAUAAGGAGUUATT against SLC37A2,inactive: 0.134
4,CCGUAAAGCUGCAUUAGAATT against CUGBP1,inactive: 0.086
5,CAGCGUGUAUGGACCAGAUTT against B9D1,inactive: -0.161
6,GGUAUCGAAUGAUAACAGATT against YARS2,inactive: 0.0901
7,GGUGGUAUCCUGUUCACAATT against TM9SF4,inactive: -0.0191
8,CCGUGGUUACAGAAACGUATT against ABHD3,inactive: -0.126
9,AGAUCUACCCAGACCCGGATT against TRAF4,active: -1.16
10,CACUUCUACUAUUUCGUCATT against MOBKL2A,inactive: 0.268
11,GCACCUCCACAGAGAGAAATT against MCAM,inactive: -0.0884
12,AGCCAUGUUUGGGCCUAAATT against CRIP1,inactive: -0.622
13,GCCUGAAACUGGAGCCUCATT against SLC3A2,inactive: -0.0428
14,AAUCAACUGCUGGACGAGATT against COL13A1,inactive: -0.112
15,CGAGAGGGCUGUUUCCAAATT against LIMS3,inactive: -0.078
16,GAAUUGGAGUGAUUCGAAUTT against NETO2,inactive: -0.136
17,GAAGAAACCCGAGUGCAAATT against RARRES2,inactive: -0.125
18,CCCUGUCACGGUACACUUUTT against CHRNA6,inactive: 0.21
19,GAAAGAAGCGGUUUUAUUUTT against IGHMBP2,inactive: -0.271
20,GCCUUUUGCUCAUCUCACUTT against TNFSF11,inactive: 0.0212
21,GAAUUUCCGUGAAUAGCAATT against KLHL7,inactive: -0.567
22,GCCCAAUGUUCGAUACUCATT against ALOXE3,inactive: -0.504
